Laboratory results from patent US20020151063A1, “Methods for modulating apoptotic cell death” (priority 1996, published 2002).
Results from cells or extracts need not show a direct contact. For part of these data: Where a protein sequence is shown, tags need not be part of it. For part of these data: Construct, isoform or probe ends are uncertain for at least one entry.

Sequences of proteins named here, by UniProt entry; tags and fusion partners are left off. A change or cut given only in a name is not applied to a line headed by its entry.
UniProt P67809: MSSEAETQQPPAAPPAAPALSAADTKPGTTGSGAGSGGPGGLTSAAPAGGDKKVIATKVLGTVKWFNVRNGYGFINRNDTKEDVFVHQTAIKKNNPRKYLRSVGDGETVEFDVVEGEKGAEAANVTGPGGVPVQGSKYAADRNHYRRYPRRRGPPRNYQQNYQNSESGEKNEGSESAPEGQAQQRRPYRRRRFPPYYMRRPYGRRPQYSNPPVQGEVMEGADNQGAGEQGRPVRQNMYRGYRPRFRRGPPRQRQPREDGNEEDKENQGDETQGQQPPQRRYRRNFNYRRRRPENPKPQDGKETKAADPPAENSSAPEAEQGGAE

Legend:
[1] = biological target: YB-1 (in cells) (Homo sapiens) (UniProt P67809); test: pull-down; conditions: PS; SK-Mel-5 cells; free YB-1 reduced after streptavidin pulldown; protein in cells; label: biotin; single-stranded DNA
hnRNP D (Homo sapiens) = biological target: T1, hnRNP D (Homo sapiens) (UniProt Q14103); test: binding assay; conditions: expression library screen with single-stranded 3x probe; protein in a lysate after overexpression; single-stranded DNA
T1 sequence (looked up, limits assumed): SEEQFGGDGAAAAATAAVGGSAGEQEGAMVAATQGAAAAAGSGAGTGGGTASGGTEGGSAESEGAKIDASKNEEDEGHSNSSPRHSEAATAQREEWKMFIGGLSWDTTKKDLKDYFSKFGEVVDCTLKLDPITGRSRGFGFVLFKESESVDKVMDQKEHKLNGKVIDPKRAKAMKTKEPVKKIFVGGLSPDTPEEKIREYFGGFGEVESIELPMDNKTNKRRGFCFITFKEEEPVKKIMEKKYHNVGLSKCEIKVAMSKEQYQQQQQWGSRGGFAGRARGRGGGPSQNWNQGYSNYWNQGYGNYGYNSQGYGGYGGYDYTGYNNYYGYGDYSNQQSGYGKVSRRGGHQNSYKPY

[2] = biological target: YB-1 (endogenous, nuclear extract) (UniProt P67809); test: EMSA; conditions: supershift with anti-YB-1 antibody; protein in an extract; label: 32P; single-stranded DNA

“GAACCTGAATTTGGATGCAGTTCCAGAC [S1 lower-strand decoy (oligo 58)]”: binds [1].

“AGTTAATGATGTCATTATCCAAA [E1 enhancer probe (3x concatamer, single-stranded)]”: binds (hnRNP D (Homo sapiens)).

“GTCTGGAACTGCATCCAAATTCAGGTTC [S1 silencer probe]”: binds [2].
